Values of other authors, collected in patent US20160045687A1, “NASAL ADMINISTRATION” (OPTINOSE AS, priority 2013, published 2016).

Details: cited from earlier work

## O=C=O [carbon dioxide]
5 L/min, 3 s duration, 20% carbon dioxide
  decrease in extracellular nasal mucosal pH during each pulse: 0.05-0.1 pH units
In vivo
  carbon dioxide concentration required to see a change in the nasal pH: > 15%
